Results reported in the supplement of paper PMC12595434, “Development of retinoid nuclear receptor pathway antagonists through targeting aldehyde dehydrogenase 1A3” (iScience, 2025).
The list shows a part of the results. The data scatter; read single values as rough.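 Tm was set to 64 °C where no melting was found, and many curves are irregular.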

The chains behind the UniProt entries cited, without tags or fusion partners. Where a name states a change or a piece, a line headed by the entry shows the natural chain unless it says otherwise.
UniProt Q5T6F2: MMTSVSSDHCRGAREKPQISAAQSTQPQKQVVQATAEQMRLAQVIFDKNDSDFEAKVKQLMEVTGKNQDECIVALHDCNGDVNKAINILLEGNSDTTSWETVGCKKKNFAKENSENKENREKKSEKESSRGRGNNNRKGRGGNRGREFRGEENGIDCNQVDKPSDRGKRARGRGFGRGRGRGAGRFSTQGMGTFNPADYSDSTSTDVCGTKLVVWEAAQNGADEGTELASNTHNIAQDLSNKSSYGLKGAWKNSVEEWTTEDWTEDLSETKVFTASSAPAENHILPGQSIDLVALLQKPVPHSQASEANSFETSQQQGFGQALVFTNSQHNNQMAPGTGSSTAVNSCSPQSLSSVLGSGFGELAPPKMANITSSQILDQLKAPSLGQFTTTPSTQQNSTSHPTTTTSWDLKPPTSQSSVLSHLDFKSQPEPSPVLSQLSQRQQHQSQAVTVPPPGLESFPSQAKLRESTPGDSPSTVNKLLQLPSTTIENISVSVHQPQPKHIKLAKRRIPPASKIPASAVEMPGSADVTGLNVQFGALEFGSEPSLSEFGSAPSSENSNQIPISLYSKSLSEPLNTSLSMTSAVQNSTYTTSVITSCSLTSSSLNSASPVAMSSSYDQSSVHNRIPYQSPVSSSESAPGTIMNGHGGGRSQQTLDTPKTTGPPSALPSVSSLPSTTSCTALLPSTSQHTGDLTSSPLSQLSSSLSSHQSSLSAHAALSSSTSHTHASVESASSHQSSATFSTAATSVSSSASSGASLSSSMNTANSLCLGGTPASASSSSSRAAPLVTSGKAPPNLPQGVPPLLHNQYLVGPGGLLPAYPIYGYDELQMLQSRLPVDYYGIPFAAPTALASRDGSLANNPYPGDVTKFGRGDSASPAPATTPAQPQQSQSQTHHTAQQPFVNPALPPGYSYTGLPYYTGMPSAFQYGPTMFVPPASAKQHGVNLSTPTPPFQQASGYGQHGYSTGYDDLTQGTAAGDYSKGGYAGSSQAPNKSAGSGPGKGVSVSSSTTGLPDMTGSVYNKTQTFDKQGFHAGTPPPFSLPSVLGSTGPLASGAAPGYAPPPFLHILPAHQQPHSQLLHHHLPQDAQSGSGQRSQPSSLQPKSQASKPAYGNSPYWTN
UniProt Q5JU69: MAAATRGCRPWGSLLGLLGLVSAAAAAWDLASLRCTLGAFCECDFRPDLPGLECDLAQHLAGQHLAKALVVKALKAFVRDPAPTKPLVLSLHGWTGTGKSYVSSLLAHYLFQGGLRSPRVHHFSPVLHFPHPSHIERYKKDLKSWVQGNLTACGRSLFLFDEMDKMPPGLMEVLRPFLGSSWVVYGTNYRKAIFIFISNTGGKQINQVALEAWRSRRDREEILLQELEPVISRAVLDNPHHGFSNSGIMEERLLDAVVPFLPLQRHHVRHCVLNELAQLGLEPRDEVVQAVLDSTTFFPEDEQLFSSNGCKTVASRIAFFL
UniProt Q6DD88: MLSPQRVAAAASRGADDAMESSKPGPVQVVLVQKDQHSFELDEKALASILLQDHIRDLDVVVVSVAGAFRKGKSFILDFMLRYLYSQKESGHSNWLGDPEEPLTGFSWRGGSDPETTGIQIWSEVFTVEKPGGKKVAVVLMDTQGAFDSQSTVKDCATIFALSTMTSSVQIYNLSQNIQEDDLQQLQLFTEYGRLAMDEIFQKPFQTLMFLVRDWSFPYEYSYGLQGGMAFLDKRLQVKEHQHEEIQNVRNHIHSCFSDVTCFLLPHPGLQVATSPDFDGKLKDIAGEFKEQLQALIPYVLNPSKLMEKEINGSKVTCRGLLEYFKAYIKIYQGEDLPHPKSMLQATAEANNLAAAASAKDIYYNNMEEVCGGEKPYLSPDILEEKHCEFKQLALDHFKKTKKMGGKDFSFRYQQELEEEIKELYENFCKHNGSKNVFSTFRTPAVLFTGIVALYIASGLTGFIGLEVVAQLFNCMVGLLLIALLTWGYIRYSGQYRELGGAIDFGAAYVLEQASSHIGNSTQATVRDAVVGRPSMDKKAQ
UniProt Q5T1C6: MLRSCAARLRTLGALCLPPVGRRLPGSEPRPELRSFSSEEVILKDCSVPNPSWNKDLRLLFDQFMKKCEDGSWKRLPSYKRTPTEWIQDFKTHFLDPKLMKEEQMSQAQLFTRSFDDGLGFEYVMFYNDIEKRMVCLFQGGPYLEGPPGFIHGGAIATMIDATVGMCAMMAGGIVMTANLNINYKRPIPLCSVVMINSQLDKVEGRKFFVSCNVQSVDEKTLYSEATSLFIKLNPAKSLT
UniProt Q5TBB1: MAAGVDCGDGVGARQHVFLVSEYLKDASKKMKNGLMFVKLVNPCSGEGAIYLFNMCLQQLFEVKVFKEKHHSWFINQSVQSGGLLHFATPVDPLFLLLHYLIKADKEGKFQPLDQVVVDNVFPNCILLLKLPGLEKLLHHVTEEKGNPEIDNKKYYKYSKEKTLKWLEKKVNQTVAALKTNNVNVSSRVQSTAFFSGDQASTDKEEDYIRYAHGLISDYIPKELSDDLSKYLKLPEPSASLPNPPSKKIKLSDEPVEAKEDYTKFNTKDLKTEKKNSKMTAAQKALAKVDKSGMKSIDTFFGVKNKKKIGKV
UniProt Q5T447: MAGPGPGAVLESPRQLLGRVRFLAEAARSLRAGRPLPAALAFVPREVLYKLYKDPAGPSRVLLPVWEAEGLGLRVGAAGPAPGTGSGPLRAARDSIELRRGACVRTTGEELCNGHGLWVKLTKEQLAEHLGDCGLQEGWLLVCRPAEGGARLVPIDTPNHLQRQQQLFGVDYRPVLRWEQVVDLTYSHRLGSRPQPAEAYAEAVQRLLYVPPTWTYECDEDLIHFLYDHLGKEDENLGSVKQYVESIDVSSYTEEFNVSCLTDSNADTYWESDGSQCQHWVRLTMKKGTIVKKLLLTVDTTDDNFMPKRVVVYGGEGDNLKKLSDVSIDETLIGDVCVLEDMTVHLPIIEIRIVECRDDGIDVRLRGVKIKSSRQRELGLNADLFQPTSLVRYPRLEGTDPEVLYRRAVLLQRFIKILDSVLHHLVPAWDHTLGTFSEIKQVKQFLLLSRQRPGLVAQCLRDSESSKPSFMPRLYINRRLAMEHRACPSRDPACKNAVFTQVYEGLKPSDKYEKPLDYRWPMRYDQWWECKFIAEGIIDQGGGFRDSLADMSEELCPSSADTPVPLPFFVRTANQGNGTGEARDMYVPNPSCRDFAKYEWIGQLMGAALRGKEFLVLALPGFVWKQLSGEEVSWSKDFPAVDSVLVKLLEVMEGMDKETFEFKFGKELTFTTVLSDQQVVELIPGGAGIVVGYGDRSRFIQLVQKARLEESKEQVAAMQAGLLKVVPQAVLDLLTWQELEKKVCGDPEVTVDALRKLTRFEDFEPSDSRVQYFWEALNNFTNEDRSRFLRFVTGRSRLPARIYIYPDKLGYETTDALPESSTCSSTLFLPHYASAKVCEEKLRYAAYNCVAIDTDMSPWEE
UniProt Q6AI12: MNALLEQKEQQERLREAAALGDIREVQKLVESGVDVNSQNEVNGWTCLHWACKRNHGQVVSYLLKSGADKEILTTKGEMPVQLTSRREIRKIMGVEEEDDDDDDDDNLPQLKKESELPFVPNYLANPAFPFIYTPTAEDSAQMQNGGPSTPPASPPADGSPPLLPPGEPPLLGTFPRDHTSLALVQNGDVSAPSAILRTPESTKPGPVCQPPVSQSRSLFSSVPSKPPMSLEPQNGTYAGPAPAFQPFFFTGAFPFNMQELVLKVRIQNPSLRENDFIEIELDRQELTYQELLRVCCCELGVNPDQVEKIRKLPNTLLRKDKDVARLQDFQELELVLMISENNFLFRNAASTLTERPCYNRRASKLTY
UniProt Q5VWG9, whole entry: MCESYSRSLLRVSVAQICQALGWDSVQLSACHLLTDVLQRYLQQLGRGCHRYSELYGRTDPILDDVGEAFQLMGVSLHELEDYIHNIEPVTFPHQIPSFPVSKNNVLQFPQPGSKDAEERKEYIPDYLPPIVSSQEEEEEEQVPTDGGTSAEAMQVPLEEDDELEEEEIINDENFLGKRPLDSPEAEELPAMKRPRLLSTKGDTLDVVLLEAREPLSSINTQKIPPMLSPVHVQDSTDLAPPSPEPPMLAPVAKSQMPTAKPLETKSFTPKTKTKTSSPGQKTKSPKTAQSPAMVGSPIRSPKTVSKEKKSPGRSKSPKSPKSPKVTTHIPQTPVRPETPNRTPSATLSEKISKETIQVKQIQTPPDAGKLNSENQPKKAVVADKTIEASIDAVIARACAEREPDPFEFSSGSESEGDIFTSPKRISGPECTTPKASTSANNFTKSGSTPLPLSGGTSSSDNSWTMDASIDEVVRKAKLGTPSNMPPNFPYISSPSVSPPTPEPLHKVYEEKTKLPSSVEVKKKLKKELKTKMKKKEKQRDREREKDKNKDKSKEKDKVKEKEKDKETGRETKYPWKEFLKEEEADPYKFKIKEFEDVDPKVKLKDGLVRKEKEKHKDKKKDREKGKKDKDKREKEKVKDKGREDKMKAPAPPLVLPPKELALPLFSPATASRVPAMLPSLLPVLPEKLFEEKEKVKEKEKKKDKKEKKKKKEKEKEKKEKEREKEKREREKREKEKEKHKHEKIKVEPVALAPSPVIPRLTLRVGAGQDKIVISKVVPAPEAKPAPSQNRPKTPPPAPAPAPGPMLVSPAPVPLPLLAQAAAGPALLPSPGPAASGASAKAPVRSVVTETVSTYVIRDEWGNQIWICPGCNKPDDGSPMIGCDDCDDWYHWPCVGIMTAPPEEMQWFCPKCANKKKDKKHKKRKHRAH
UniProt Q6L8Q7: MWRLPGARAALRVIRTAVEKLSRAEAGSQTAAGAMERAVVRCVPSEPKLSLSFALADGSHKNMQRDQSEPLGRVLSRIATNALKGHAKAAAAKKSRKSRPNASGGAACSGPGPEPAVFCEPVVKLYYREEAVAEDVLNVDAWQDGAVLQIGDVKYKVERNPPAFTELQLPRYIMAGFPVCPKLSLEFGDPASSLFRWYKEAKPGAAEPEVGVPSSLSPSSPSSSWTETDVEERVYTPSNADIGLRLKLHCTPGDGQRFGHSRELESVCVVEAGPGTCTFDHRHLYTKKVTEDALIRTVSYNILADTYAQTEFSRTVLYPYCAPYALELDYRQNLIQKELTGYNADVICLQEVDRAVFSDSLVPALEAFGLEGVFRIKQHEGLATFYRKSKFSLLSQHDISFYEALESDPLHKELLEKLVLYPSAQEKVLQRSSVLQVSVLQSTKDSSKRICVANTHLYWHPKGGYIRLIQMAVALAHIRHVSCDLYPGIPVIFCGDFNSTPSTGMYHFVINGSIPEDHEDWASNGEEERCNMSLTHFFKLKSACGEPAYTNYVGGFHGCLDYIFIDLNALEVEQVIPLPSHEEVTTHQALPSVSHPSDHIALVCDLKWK
UniProt Q5J8M3, whole entry: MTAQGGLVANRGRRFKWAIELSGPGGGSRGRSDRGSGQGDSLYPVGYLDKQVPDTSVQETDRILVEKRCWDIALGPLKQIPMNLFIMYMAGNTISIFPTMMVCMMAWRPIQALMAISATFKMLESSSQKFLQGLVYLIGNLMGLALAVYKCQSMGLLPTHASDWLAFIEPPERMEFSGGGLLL
UniProt Q6IAN0: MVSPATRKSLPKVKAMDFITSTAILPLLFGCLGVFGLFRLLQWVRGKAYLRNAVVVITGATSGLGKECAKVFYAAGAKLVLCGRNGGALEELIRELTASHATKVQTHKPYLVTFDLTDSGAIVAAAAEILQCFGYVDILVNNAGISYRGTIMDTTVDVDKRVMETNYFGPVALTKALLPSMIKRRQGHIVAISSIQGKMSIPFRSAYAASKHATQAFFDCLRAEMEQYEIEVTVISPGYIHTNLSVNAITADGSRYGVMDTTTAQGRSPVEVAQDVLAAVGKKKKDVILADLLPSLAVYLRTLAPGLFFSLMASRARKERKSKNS
UniProt Q5U5X0: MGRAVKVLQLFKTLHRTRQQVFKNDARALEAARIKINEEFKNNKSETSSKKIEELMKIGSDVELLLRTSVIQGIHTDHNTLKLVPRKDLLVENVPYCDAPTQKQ
UniProt Q5SNT2: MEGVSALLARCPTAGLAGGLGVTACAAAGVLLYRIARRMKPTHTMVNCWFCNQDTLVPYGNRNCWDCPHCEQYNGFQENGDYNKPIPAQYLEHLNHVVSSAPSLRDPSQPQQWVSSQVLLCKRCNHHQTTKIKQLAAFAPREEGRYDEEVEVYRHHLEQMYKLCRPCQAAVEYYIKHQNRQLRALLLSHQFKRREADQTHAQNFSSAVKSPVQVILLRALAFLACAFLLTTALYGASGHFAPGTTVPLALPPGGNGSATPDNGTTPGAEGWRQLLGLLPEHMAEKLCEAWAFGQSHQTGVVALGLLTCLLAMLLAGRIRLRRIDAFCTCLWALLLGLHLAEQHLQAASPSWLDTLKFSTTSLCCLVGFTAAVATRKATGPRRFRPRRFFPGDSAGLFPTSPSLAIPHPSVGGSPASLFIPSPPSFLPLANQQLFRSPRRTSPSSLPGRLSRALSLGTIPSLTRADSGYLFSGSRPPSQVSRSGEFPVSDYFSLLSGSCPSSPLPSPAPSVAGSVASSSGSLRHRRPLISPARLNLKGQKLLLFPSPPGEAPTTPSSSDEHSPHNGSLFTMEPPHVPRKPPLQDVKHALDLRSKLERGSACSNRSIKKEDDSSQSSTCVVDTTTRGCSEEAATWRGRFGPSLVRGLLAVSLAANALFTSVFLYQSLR

The targets below were run with CCc1cnccc1C(=O)Nc1cc2c(cc1F)NC(=O)CC2 (assay: melting temperature shift (DMSO Tm minus MBE1-treated Tm) in cellular thermal proteome profiling; higher = less thermal stabilization by MBE1 (negative = stabilized by MBE1)). Details: A375; MBE1 concentration: 100 nM.

Row | Target | melting temperature shift
1 | UBAP2 (UniProt Q5T6F2) | -1.23 °C
2 | UniProt Q5JU69 | -0.946 °C
3 | ATL3 (UniProt Q6DD88) | -0.22 °C
4 | LAMTOR1 (UniProt Q6IAA8) | -2.12 °C
5 | TTC27 (UniProt Q6P3X3) | -1 °C
6 | THEM4 (UniProt Q5T1C6) | -0.796 °C
7 | RNASEH2B (UniProt Q5TBB1) | -1.01 °C
8 | ZMYM4 (UniProt Q5VZL5) | -0.179 °C
9 | UniProt Q5TH69 | -0.22 °C
10 | PRMT9 (UniProt Q6P2P2) | 0.769 °C
11 | HECTD3 (UniProt Q5T447) | 1.05 °C
12 | ANKRD40 (UniProt Q6AI12) | -1.16 °C
13 | UHRF1BP1 (UniProt Q6BDS2) | -0.543 °C
14 | UniProt Q5TZA2 | -0.055 °C
15 | TAPT1 (UniProt Q6NXT6) | -2.27 °C
16 | UniProt Q6N043 | -1.53 °C

2 records picked at random from the list so far:
Row | Target | melting temperature shift
14 | UniProt Q5TZA2 | -0.055 °C
6 | THEM4 (UniProt Q5T1C6) | -0.796 °C

More entries.

Row | Target | melting temperature shift
17 | INTS3 (UniProt Q68E01) | -0.639 °C
18 | ELP2 (UniProt Q6IA86) | -0.238 °C
19 | UniProt Q5VWG9 | -0.254 °C
20 | PDE12 (UniProt Q6L8Q7) | -0.562 °C
21 | UniProt Q674X7 | -6.59 °C
22 | EMC4 (UniProt Q5J8M3) | 0.0738 °C
23 | DHRS7B (UniProt Q6IAN0) | 0.965 °C
24 | YOD1 (UniProt Q5VVQ6) | 0.546 °C
25 | ODF2 (UniProt Q5BJF6) | 0.302 °C
26 | PCID2 (UniProt Q5JVF3) | -0.856 °C
27 | LYRM7 (UniProt Q5U5X0) | 0.0366 °C
28 | UniProt Q5SXM2 | -0.443 °C
29 | PTRF (UniProt Q6NZI2) | -1.54 °C
30 | ACBD5 (UniProt Q5T8D3) | -1.06 °C
31 | UniProt Q5SNT2 | -0.055 °C
32 | FAM91A1 (UniProt Q658Y4) | -0.127 °C
